PubChem BioAssay AID1259254 | NCATS, 2017
The deposit covers about 59,000 reagents; below is a random part of them. Over the whole deposit, about 1,550 (2.6%) are marked active. 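G2 share is only a proxy for re-replication; each gene was hit by three separate siRNAs, and active genes were retested.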 Entries without a mark were called inactive. Reagents against one gene are numbered here. Not all columns of the deposit are shown. The record does not give: the amount of reagent.

Purpose: 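Finding genes that stop cells copying their DNA twice in one cycle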 (primary screen)
System: human HCT116 colorectal cancer cells
Knock-down reagent: single siRNA against human genes
Time to read-out: 3 days
Read-out: 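Imaged Hoechst DNA stain sorts each cell into a cycle phase by DNA amount; per plate, G2 fraction set to 0% for non-targeting and 100% for GMNN siRNA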
Direction: G2 robust z-score and G2 cells, % of GMNN control: higher = more G2 cells, more excess DNA replication
Active means: 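Active siRNAs have a G2 robust z of 5 or more median absolute deviations over the median, which in these data means about 38% or higher of GMNN control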

{"gene knocked down": "SGPP2 (sphingosine-1-phosphate phosphatase 2)", "reagent": 1, "G2 robust z-score": -0.644, "G2 cells, % of GMNN control": -1.56}
{"gene knocked down": "SGPP2 (sphingosine-1-phosphate phosphatase 2)", "reagent": 2, "G2 robust z-score": "6.17 (active)", "G2 cells, % of GMNN control": 46.3}
{"gene knocked down": "SGPP2 (sphingosine-1-phosphate phosphatase 2)", "reagent": 3, "G2 robust z-score": 0.973, "G2 cells, % of GMNN control": 9.81}
{"gene knocked down": "RAB40AL (RAB40A like)", "reagent": 1, "G2 robust z-score": -0.532, "G2 cells, % of GMNN control": -0.779}
{"gene knocked down": "RAB40AL (RAB40A like)", "reagent": 2, "G2 robust z-score": -0.247, "G2 cells, % of GMNN control": 1.23}
{"gene knocked down": "RAB40AL (RAB40A like)", "reagent": 3, "G2 robust z-score": -0.432, "G2 cells, % of GMNN control": -0.0725}
{"gene knocked down": "FABP4 (fatty acid binding protein 4)", "reagent": 1, "G2 robust z-score": "8.43 (active)", "G2 cells, % of GMNN control": 62.3}
{"gene knocked down": "FABP4 (fatty acid binding protein 4)", "reagent": 2, "G2 robust z-score": 0.119, "G2 cells, % of GMNN control": 3.8}
{"gene knocked down": "FABP4 (fatty acid binding protein 4)", "reagent": 3, "G2 robust z-score": 1.71, "G2 cells, % of GMNN control": 15}
{"gene knocked down": "AZGP1 (alpha-2-glycoprotein 1, zinc-binding)", "reagent": 1, "G2 robust z-score": -0.736, "G2 cells, % of GMNN control": -2.21}
{"gene knocked down": "AZGP1 (alpha-2-glycoprotein 1, zinc-binding)", "reagent": 2, "G2 robust z-score": 2.16, "G2 cells, % of GMNN control": 18.2}
{"gene knocked down": "AZGP1 (alpha-2-glycoprotein 1, zinc-binding)", "reagent": 3, "G2 robust z-score": 4.32, "G2 cells, % of GMNN control": 33.3}
